Bridge positions count the residues as written; N and C are the ends. Square brackets hold non-standard residues; d marks the D form. * marks the point of attachment. 2Nal = N[C@@H](Cc1ccc2ccccc2c1)C(=O)O; Lys(iPr) = CC(C)NCCCC[C@H](N)C(=O)O; hCys = N[C@@H](CCS)C(=O)O; Bz = O=C(c1ccccc1)*; Mpa = O=C(O)CCS

The values that follow come from US11771736B2 (Mainline Biosciences (Shanghai) Co., Ltd., priority 2017, dated 2023).

Data set [1] is described as follows: general procedure: Fmoc solid-phase peptide synthesis; 2-Chloro-trityl chloride resin; DCC/HOBt. To be noted: whole synthesis, Analytical HPLC, scale of the general procedure 3.6 grams of Rink AM resin, 4.0 grams of 2-chlorotrityl chlo, acetate salt.
Data set [2] in a line: general procedure: Fmoc solid-phase peptide synthesis; Rink AM resin; DCC/HOBt. Conditions: whole synthesis, Analytical HPLC, scale of the general procedure 3.6 grams of Rink AM resin, 4.0 grams of 2-chlorotrityl chlo, acetate salt.
A short description of data set [3]: general procedure: Fmoc solid-phase peptide synthesis; Rink AM resin; 2-chlorotrityl chloride resin (0.4 mmole/gram) for Examples 6 and 7; DCC/HOBt. To be noted: whole synthesis, Analytical HPLC, scale of the general procedure 3.6 grams of Rink AM resin, 4.0 grams of 2-chlorotrityl chlo, acetate salt (from TFA salt).
Data set [4] can be described thus: general procedure: Fmoc solid-phase peptide synthesis; 2-chlorotrityl chloride resin; DCC/HOBt. Conditions: whole synthesis, Analytical HPLC, scale of the general procedure 3.6 grams of Rink AM resin, 4.0 grams of 2-chlorotrityl chlo, acetate salt.

With “Ac-cyclo[hCys-Tyr-Lys(iPr)-(D-Arg)-2Nal-Gly-Cys]-Lys(iPr)-Gly-NH(Et)”, the “final HPLC purity” value in data set [1] is given as 95.03%.

For the substance “Benzoyl-cyclo[hCys-Tyr-Lys(iPr)-(D-Arg)-2Nal-Gly-Cys]-Lys(iPr)-Gly-NH(Et)”, in data set [1], the “final HPLC purity” value is given as 97.59%.

With “Bz-CY[Lys(iPr)][dR][2Nal]GC[Lys(iPr)]G-NH2 (disulfide 1-7)”, the “final HPLC purity” value in data set [2] stood at 97.04%.

“Bz-CY[Lys(iPr)][dR][2Nal]G[hCys][Lys(iPr)]G-NH2 (disulfide 1-7)”: the “final HPLC purity” value in data set [2] was determined as 95.64%.

Consider “Bz-[hCys]Y[Lys(iPr)][dR][2Nal]GC[Lys(iPr)]G-NH2 (disulfide 1-7)”, for which the “final HPLC purity” value in data set [2] came to 95.98%.

For “Phenylacetyl-cyclo[hCys-Tyr-Lys(iPr)-(D-Arg)-2Nal-Gly-Cys]-Lys(iPr)-Gly-NH2”, in data set [2], the “final HPLC purity” value is recorded as 95.67%.

On to “[Mpa]RYR[2Nal]GCRG[dF]G-NH2 (disulfide 1-7)”, for which the “final HPLC purity” value in data set [3] and in data set [2] was 96.05% throughout.

Regarding “[Mpa]YR[dR][2Nal]GCRG[dF]G-NH2 (disulfide 1-7)”, the “final HPLC purity” value in data set [3] and in data set [2] was 96.64% in each case.

As to “cyclo[Mpa-Tyr-Lys(iPr)-(D-Arg)-2Nal-Gly-Cys]-Lys(iPr)-Lys(Ac)-NH(Et)”, the “final HPLC purity” value in data set [4] stood at 95.50%.

With “cyclo[Mpa-Tyr-Lys(iPr)-(D-Arg)-2Nal-Gly-Cys]-Lys(iPr)-Lys(lauroyl)-NH(Et)”, the “final HPLC purity” value came to 95.42% in data set [4] and 96.42% in data set [3].

Turning to “cyclo[Mpa-Tyr-Lys(iPr)-(D-Arg)-2Nal-Gly-Cys]-Lys(iPr)-Lys(palmitoyl)-NH(Et)”, the “final HPLC purity” value in data set [4] came to 95.31%.
